Laboratory results published in patent US7285528B2, “Agonists and antagonists of gonadotropin-releasing hormone-2, and use thereof” (priority 2002, dated 2007).
Part of at least one peptide drawing is inferred or uncertain, most often the ends.

What was measured:
bfGnRHR-3 [1] = assay: Inositol phosphate (IP) production, GH3 cells expressing bfGnRHR-3; format: cell-based, bullfrog; details: log of EC50 (negative values), concentration inducing half-maximal stimulation, 30 min
From the text: (§1) The GnRH receptor, a membrane protein connected with the G protein, activates the G protein when activated by a ligand, and the activated G protein activates phospholipase C and thereby the synthesis of inositol phosphate (IP), which is the second transmitter in cells, is increased. Based on this principle, the activity of a receptor can be investigated by measuring the amount of IP within cells. GH3 cell lines were obtained from the Cell Line Bank at the Cancer Research Center, Seoul National University College of Medicine, located in Seoul, Republic of Korea. The GH3 cell lines were infected with retroviruses comprising genes encoding […]-2, and bfGnRHR-3 which are bullfrog GnRH receptors, and rat GnRHR, and cell lines expressing each of these receptors were obtained. The GH3 cells expressing […]-3, and rat GnRHR were cultured on 12-well plates. After 24 hours, the cells were cultured again for 24 hours in a media containing no inositol, to which H^3-myoinositol was added. […] Thereafter, they were treated with GnRH having a suitable concentration, cultured at 37° C. for another 30 minutes, and then the media was eliminated. […] These resins were washed with distilled water, IP was extracted with 1 M ammonium formate/0.1 M formic acid, and cpm (count per minute) was determined. […]

Primate GnRH-2 receptor = assay: c-fos-luc luciferase activation by agonists, CV-1 cells expressing Primate GnRH-2 receptor; format: cell-based, Primates; details: log of EC50 (negative values), average of three independent experiments
Protocol: Complimentary DNA (cDNA) for a Primate GnRH-2 receptor was obtained from a CV-1 cell genome. […] Plasmids having Primate GnRH-2 receptors where transfected into CV-1 cells. To assay the activity of the receptor, c-fos-luc where a luciferase gene is fused with a c-fos promoter was co-transfected as a probe gene. After 48 hours from transfection, the cells were treated with GnRH-2 agonists and then the activity of luciferase was assayed (Seong et al., Endocrinology vol 144 2003, 454-466). […] Of the GnRH-2 receptors, [[…]]GnRH-2 performed excellently, showing effects about 3 times that of a wild-type ligand, GnRH-2. […] When analogs where the 5th, 7th, and 8th amino acids of [[…]]GnRH-2 are substituted were used, it was observed that their effects were weaker than [[…]]GnRH-2, and therefore it can be seen that it is important to maintain His, Trp, and Tyr that are found at the 5th, 7th, and 8th positions of GnRH-2 as they are (FIG. 3b). Log EC50 values and Emax values of GnRH-2 agonists are average values of experiments that were conducted independently three times. Ratio^a represents the ratio of EC50 values of other GnRH analogs based on EC50 values of GnRH-2.

bfGnRHR-2 = assay: Inositol phosphate (IP) production, GH3 cells expressing bfGnRHR-2; format: cell-based, bullfrog; details: log of EC50 (negative values), concentration inducing half-maximal stimulation, 30 min
From the text: as §1

bfGnRHR-3 [2] = assay: Ligand-receptor binding assay, I125-GnRH-2 competition, membranes of GH3 cells expressing bfGnRHR-3; design: species or system bullfrog; details: log of IC50 (negative values); competition with I125-GnRH-2, 4° C., 16 hours
Protocol: To determine the binding affinity between GnRH and GnRH receptors, GnRH-2 was radiolabeled with I^125. The GH3 cells expressing bfGnRHR-1, bfGnRHR-2, bfGnRHR-3, and rat GnRHR constructed in Example 2-3 above were cultured on 100-mm dishes. After 48 hours, the cells were homogenized to obtain cellular membranes, which were then dissolved in binding buffer (40 mM Tris, pH 7.4, 2 mM MgCl2). 20 μg of membrane proteins were reacted with I^125-GnRH-2 at 4° C. for 16 hours. […] After the reaction was completed, 1^125-GnRH-2 bound to the receptors was filtered using a Brandel harvester, and cpm was measured using a γ-counter.
The GH3 cells expressing bfGnRHR-3 obtained from Example 6-1 above were treated with l^125GnRH-2 and GnRH-2 agonists and antagonists at various concentrations to determine the binding affinity of GnRH-2 agonists and antagonists toward the receptors.

TSU-Pri cells = assay: Binding of radiolabeled GnRH to TSU-Pri prostate cancer cells and competition; design: species or system human; details: unradiolabeled peptide as competitor
Protocol: The radiolabeled GnRH and the cells were cultured at room temperature for 6 hours, and then washed with PBS (phosphate-buffered saline) several times to eliminate the unbound GnRH. Thereafter, the cells were isolated and radioactivity from the cells was measured using a γ-counter.

bfGnRHR-1 = assay: Inositol phosphate (IP) production, GH3 cells expressing bfGnRHR-1; format: cell-based, bullfrog; details: log of EC50 (negative values), concentration inducing half-maximal stimulation, 30 min
From the text: as §1

SMILES: CC(C)C[C@H](NC(=O)CNC(=O)[C@H](Cc1ccc(O)cc1)NC(=O)[C@H](CO)NC(=O)[C@H](Cc1c[nH]c2ccccc12)NC(=O)[C@H](Cc1c[nH]cn1)NC(=O)[C@@H]1CCC(=O)N1)C(=O)N[C@@H](CCCNC(=N)N)C(=O)N1CCC[C@H]1C(=O)NCC(N)=O [GnRH-1]
- Log EC50 (bfGnRHR-3 [1]): −8.42 ± 0.07
- Log EC50 (Primate GnRH-2 receptor): −5.74 ± 0.15
- Log EC50 (bfGnRHR-2): −5.59 ± 0.14
- Binding affinity (log IC50 value) (bfGnRHR-3 [2]): −7.32 ± 0.17
- reduction of radiolabeled GnRH-2 binding to TSU-Pri cells by unradiolabeled competitor (TSU-Pri cells): the binding was not reduced
- Log EC50 (bfGnRHR-1): −8.52 ± 0.14
